# Results published in patent publication US20230159489A1, “PHD INHIBITOR COMPOUNDS, COMPOSITIONS, AND USE” (Akebia Therapeutics, Inc., priority 2020, published 2023).
# Protein sequences, listed by entry. Tags and fused reporters are not part of them.
# UniProt Q9GZT9, whole entry: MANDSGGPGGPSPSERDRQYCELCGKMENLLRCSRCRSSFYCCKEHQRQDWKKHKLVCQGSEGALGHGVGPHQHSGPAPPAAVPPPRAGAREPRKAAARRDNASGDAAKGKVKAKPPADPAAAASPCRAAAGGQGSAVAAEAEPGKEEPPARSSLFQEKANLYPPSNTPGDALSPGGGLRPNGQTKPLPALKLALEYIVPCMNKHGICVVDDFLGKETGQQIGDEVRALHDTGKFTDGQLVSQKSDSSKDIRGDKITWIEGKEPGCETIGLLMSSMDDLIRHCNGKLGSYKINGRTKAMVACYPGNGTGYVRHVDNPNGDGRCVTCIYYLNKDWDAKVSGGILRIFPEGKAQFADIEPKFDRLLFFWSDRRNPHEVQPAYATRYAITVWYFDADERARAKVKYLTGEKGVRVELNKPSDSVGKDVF
# UniProt Q96KS0, whole entry: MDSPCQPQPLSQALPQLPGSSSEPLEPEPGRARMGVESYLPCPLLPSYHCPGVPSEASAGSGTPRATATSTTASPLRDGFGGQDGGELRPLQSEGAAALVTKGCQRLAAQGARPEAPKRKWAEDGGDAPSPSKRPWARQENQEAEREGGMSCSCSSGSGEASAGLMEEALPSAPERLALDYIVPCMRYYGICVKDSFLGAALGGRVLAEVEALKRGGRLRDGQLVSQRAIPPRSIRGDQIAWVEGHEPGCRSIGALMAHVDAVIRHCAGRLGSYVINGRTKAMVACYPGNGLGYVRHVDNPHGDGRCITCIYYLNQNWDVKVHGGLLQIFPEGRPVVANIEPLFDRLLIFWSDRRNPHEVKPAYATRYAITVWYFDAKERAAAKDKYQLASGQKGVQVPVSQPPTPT
# Assays:
# full-length human PHD2 = full-length human PHD2 (Homo sapiens, UniProt Q9GZT9); test: TR-FRET assay, enzymatic IC50 against PHD2; conditions: read-out: PHD2 IC50, 5 nM PHD2, 1 μM 2-OG
# full-length human PHD1 = full-length human PHD1 (Homo sapiens, UniProt Q96KS0); test: TR-FRET assay, enzymatic IC50 against PHD1; conditions: read-out: PHD1 IC50, 15 nM PHD1, 1 μM 2-OG
compound,measurement,setting,value
Cc1nn(-c2ccc([S@](=N)(=O)C3CC3)cn2)c(O)c1-c1ccc(C#N)cc1,IC50,full-length human PHD2,< 0.1 µM
same,IC50,full-length human PHD1,< 0.1 µM

# The match of structure and compound is tentative.
